According to patent US8226965B2, “Methods of treating fungal, yeast and mold infections” (priority 2008, dated 2012):
For at least one compound, name, drawing or mass did not settle the structure.

Test system: T. rubrum mycelia and microconidia
Assay: Time-kill experiments
Assay type: cell-based, Trichophyton rubrum
Conditions: 16×MIC, up to 24 hours, hyphae or microconidia in water (nongrowth)
Method: Time-kill experiments. […] Part of the conidial suspension was pelleted and resuspended in RPMI 1640 medium and grown for 16-18 hours overnight at room temperature to allow germination of microconidia. After germination, the hyphae were collected by centrifugation and resuspended in distilled water. […] Colony-forming units were counted after four days of incubation at 35° C.

## CCC(C)n1ncn(-c2ccc(N3CCN(c4ccc(OCC5COC(Cn6cncn6)(c6ccc(Cl)cc6Cl)O5)cc4)CC3)cc2)c1=O (stereo not shown) [Itraconazole]
  reduction in colony counts: None of the other compounds significantly reduced colony counts
